The other results are listed elsewhere or left out.
These compounds were tested on T1, CTL2-GFP (C. trachomatis L2/434/Bu, GFP-expressing). Conditions: bulk GFP, single well; 28.5 h, 10 µM; inhibitor.
T1 construct: L2/434/Bu, GFP-expressing
Design: species or system HeLa; Intracellular C. trachomatis growth in HeLa cells, bulk GFP fluorescence relative to DMSO
In the case of `O=C(O)C(CC1COc2ccccc2O1)C(=O)O` (stereo not drawn) [CBK276280], the “% of control remaining” value is reported as 145.52%.
With `O=C(NCCc1c[nH]cn1)NC12CC3CC(CC(C3)C1)C2` [CBK269880] the “% of control remaining” value was 114.987%.
With `CCOC(=O)C1CCCCN1Cc1ccc(OC)c(O)c1` (stereo not drawn) [CBK261560] the “% of control remaining” value was 110.023%.
In the case of `CC(=O)[C@H]1C[C@@H](CC(=O)N2CCN(c3ccc(C(F)(F)F)cc3)CC2)C1(C)C` [CBK091330], the “% of control remaining” value is reported as 102.108%.
With `O=C(C[C@@H]1CCNC[C@@H]1Cc1cc(-c2ccccc2)on1)NC1CC1` [CBK289146] the “% of control remaining” value was 111.825%.
With `Cc1ncc(S(=O)(=O)N2CCC(OCc3ccncc3)C2)s1` (stereo not drawn) [CBK305483] the “% of control remaining” value was 90.3468%.
In the case of `Clc1ccc(SCCCSc2ncccn2)cc1` [CBK266400], the “% of control remaining” value is reported as 169.89%.
In the case of `Cc1nc2cc(C(=O)N3CCCCC3CN3CCOCC3)ccc2[nH]1` (stereo not drawn) [CBK304219], the “% of control remaining” value is reported as 106.04%.
With `Clc1ccc(C2N(Cc3ccccc3)CCC3CCCCN32)cc1Cl` (stereo not drawn) [CBK028769] the “% of control remaining” value was 100%.
With `Cc1ccc(S(=O)(=O)Nc2sccc2C(=O)O)cc1` [CBK042244] the “% of control remaining” value was 190.301%.
`CCOC(=O)N/N=C1\CCSc2sccc21` [CBK006300] was tested, and the “% of control remaining” value was 86.362%.
`Clc1ccccc1CN1CCC(n2cnc3cccnc32)CC1` [CBK283967] was tested, and the “% of control remaining” value was 93.3447%.
In the case of `CCOc1cc(OCC)cc(C(=O)N2CCC3(CC2)CC(=O)c2ccc(OCC)cc2O3)c1` [CBK168014], the “% of control remaining” value is reported as 112.196%.
`CC(=O)N(C)c1nc(-c2ccccc2C)ccc1C(=O)N(C)C` [CBK106350] was tested, and the “% of control remaining” value was 109.04%.
`COc1ccc(C(=O)Nc2cccnc2N2CCNCC2)cc1` [CBK029421T] was tested, and the “% of control remaining” value was 96.521%.
With `CCc1nn(CC(=O)N2CCCCC2)c(=O)c2cc3ccsc3n12` [CBK284119] the “% of control remaining” value was 113.939%.
With `O=C(O)c1csc(S(=O)(=O)Nc2ccccc2C(=O)Nc2ccc3c(c2)OCO3)c1` [CBK295655] the “% of control remaining” value was 132.702%.
For `CC(C)C(CO)NC(=O)C1(Cc2ccc(-c3ccc(F)c(F)c3)cc2)CCOCC1` (stereo not drawn) [CBK286525], the “% of control remaining” value was 102.245%.
For `CC(C)(C)c1n[nH]c(C2CN(C(=O)CCc3ccco3)CCO2)n1` (stereo not drawn) [CBK305204], the “% of control remaining” value was 150.591%.
For `CCOc1ccc(NC(=O)CSc2nc3nc(C)cc(C)n3n2)cc1` [CBK268278], the “% of control remaining” value was 88.8211%.
For `Cc1cc(C(=O)CSc2nc(=O)cc(O)n2CC(C)C)c(C)n1C` [CBK295649], the “% of control remaining” value was 132.696%.
With `Cc1conc1C(=O)N1CCCCC1CN1CCOCC1` (stereo not drawn) [CBK304771] the “% of control remaining” value was 86.9341%.
In the case of `CCOC(=O)c1sc(-c2ccc(Br)cc2)nc1O` [CBK075087], the “% of control remaining” value is reported as 74.0288%.
For `COc1ccc(CNc2nc(C)n[nH]2)cc1Cl` [CBK288036], the “% of control remaining” value was 158.251%.
With `CCOC(=O)c1cccc(NS(=O)(=O)c2cc(Br)ccc2OC)c1` [CBK034336] the “% of control remaining” value was 99.623%.
In the case of `CC(C)(CC(=O)O)CC(=O)Nc1ccc(-c2nc3ccccc3s2)cc1` [CBK299796], the “% of control remaining” value is reported as 91.0921%.
In the case of `O=C(N/N=C\c1ccccc1C(F)(F)F)c1ccc(=O)[nH]n1` [CBK263389], the “% of control remaining” value is reported as 113.73%.
`O=C(O)CCn1ncc2ccccc21` [CBK262257] was tested, and the “% of control remaining” value was 99.3226%.
With `CC(C)(C)c1csc(N2CCSCC2)n1` [CBK021950] the “% of control remaining” value was 100.876%.
With `COc1ccccc1OCCNC1CCc2cc(Cl)ccc2C1` (stereo not drawn) [CBK013067C] the “% of control remaining” value was 109.485%.
`O=C(NC(Cc1ccsc1)c1ccccn1)c1ccc(=O)[nH]c1` (stereo not drawn) [CBK285272] was tested, and the “% of control remaining” value was 90.8312%.
In the case of `O=C(COC(=O)C1CCC(N2C(=O)c3ccccc3C2=O)CC1)c1ccc(-c2ccccc2)cc1` (stereo not drawn) [CBK264789], the “% of control remaining” value is reported as 133.254%.
In the case of `Cc1nc(C)c(C(=O)NCCN2CCCC2=O)s1` [CBK282222], the “% of control remaining” value is reported as 117.672%.
With `O=C(Nc1nccc(-c2cc(OCC(F)(F)F)ccc2OCC(F)(F)F)n1)c1cccs1` [CBK005949] the “% of control remaining” value was 70.4243%.
For `Cn1c(=O)c2[nH]c(N3CCN(c4cccc(O)c4)CC3)nc2n(C)c1=O` [CBK269760], the “% of control remaining” value was 90.7679%.
With `Cc1nonc1CC(=O)NC1(c2ccc(F)cc2)CCCC1` [CBK283613] the “% of control remaining” value was 117.181%.
In the case of `Cc1ccc(C(CCO)Nc2ncnc3c2c(C)nn3C)cc1` (stereo not drawn) [CBK307387], the “% of control remaining” value is reported as 118.147%.
`COc1ncc(-c2nccnc2OCCn2cnc3c2c(=O)n(C)c(=O)n3C)c(OC)n1` [CBK106746] was tested, and the “% of control remaining” value was 102.388%.
In the case of `CN(C)C(=O)c1ccc(-c2ccc3c(c2)OC(C2CCN(C(=O)OCc4ccccc4)CC2)OC3)cc1` (stereo not drawn) [CBK144649], the “% of control remaining” value is reported as 116.133%.
In the case of `Cc1cc(CN2CCN(S(=O)(=O)c3ccc(-c4ccccc4)cc3)CC2)cc(C)c1O` [CBK062747], the “% of control remaining” value is reported as 88.1511%.
`COc1ccc(S(=O)(=O)Nc2cc(C(=O)O)ccc2C)cc1NC(C)=O` [CBK296946] was tested, and the “% of control remaining” value was 148.884%.
For `Cc1cc(CNS(=O)(=O)c2sc3ccc(C(C)C)cc3c2C)no1` [CBK170353], the “% of control remaining” value was 118.304%.
`O=C1C2C3C=CC(C3)C2C(=O)N1CCN1CCN(S(=O)(=O)/C=C/c2ccccc2)CC1` (stereo not drawn) [CBK263663] was tested, and the “% of control remaining” value was 130.368%.
In the case of `CCn1cc(CN2CCCN(C(=O)c3cn4ccccc4n3)CC2)cn1` [CBK304784], the “% of control remaining” value is reported as 143.369%.
`N#Cc1c(NC(=O)CN2CCN(Cc3ccccc3)CC2)sc2c1CCCC2` [CBK267969] was tested, and the “% of control remaining” value was 107.032%.
With `O=[N+]([O-])c1ccc(CN2CCN(Cc3cc(Br)ccc3O)CC2)cc1` [CBK263652G] the “% of control remaining” value was 102.689%.
With `CNCC(=O)N[C@H]1CCN2C(=O)c3ccc(Cl)cc3NC(=O)[C@@H]2C1` [CBK289566] the “% of control remaining” value was 145.823%.
With `O=C(CCNC(Cc1ccccc1)C(=O)O)c1ccccc1` (stereo not drawn) [CBK286655] the “% of control remaining” value was 123.862%.
With `COc1ccccc1C(=O)NCCCc1nc2ccccc2[nH]1` [CBK269837] the “% of control remaining” value was 120.796%.
In the case of `O=C(N/N=C/c1ccc[nH]1)C1CC1c1ccccc1` (stereo not drawn) [CBK022120], the “% of control remaining” value is reported as 166.753%.
`NCCNCCCCOc1ccc(Cl)c(Cl)c1` [CBK265059] was tested, and the “% of control remaining” value was 84.7767%.
`COc1ccc(-c2nc(NC3CCCCC3)c3ccccc3n2)cc1` [CBK058109] was tested, and the “% of control remaining” value was 105.828%.
With `O=C(NNC(=O)C(O)c1ccccc1)NC1CCCCC1` (stereo not drawn) [CBK262625] the “% of control remaining” value was 108.204%.
In the case of `N#Cc1ccc(OCC(=O)Nc2ncccn2)cc1` [CBK304578], the “% of control remaining” value is reported as 84.103%.
With `CCCCCC(=O)Nc1c(C)cc(Br)cc1C` [CBK058159] the “% of control remaining” value was 126.196%.
`Cc1cccc2cnc(C3CCN(C(=O)CCc4ccno4)CC3)cc12` [CBK285197] was tested, and the “% of control remaining” value was 107.719%.
In the case of `O=C(NCCc1ccccc1)NCCc1cccs1` [CBK045154], the “% of control remaining” value is reported as 148.23%.
For `O=C(Cn1cc(Br)ccc1=O)NC1CCN(CCc2ccccc2)CC1` [CBK305887], the “% of control remaining” value was 76.9709%.
For `CCCC/C=C/c1cncc(N2CCN(c3ccccc3C#N)CC2)n1` [CBK037369], the “% of control remaining” value was 123.277%.
With `Cc1cc(S(=O)(=O)NCCn2nc(C)c(C)c2C)ccc1F` [CBK281382] the “% of control remaining” value was 143.06%.
In the case of `O=C(O)COc1ccccc1/C=N/n1c(S)nnc1-c1cccnc1` [CBK265337], the “% of control remaining” value is reported as 130.404%.
For `CC1CCc2sc(C(=O)N3CCC4(CC3)NC(=O)NC4=O)cc2C1` (stereo not drawn) [CBK304992], the “% of control remaining” value was 131.109%.
For `O=c1cc(N2CCCCC2)cnn1CCCn1cccn1` [CBK306907], the “% of control remaining” value was 129.212%.
With `COc1cc(NC(=O)C2CCN(S(=O)(=O)c3cccs3)CC2)c(Cl)cc1C(=O)O` [CBK297085] the “% of control remaining” value was 126.141%.
With `Cc1ccc(S(=O)(=O)Nc2cccc(C(=O)O)c2)cc1` [CBK038891] the “% of control remaining” value was 133.228%.
In the case of `CN1CCN(C(=O)c2cccc(-c3nc(-c4ccc(C#N)cc4)cnc3N)c2)CC1` [CBK064144], the “% of control remaining” value is reported as 93.9375%.
In the case of `O=C(NCc1ccccn1)C1CCN(S(=O)(=O)c2ccc(Cl)cc2)CC1` [CBK264959], the “% of control remaining” value is reported as 123.798%.
With `Oc1cccc(-c2nccnc2NCCc2ccccn2)c1` [CBK037388] the “% of control remaining” value was 208.177%.
In the case of `O=C(NC1CCN(Cc2ccccc2)C1)c1ccc(F)cc1` (stereo not drawn) [CBK283044], the “% of control remaining” value is reported as 117.84%.
With `O=C(Cc1ccccc1)N1CCC(CC(=O)N2CCC3(CCCCC3)C2)CC1` [CBK286031] the “% of control remaining” value was 123.262%.
For `O=C(O)CCN1CCn2c3c(c4cc(C5CCCCC5)ccc42)CCCC31` (stereo not drawn) [CBK263236], the “% of control remaining” value was 119.005%.
With `O=C(Nc1cccnc1)c1ccc(CN2CCC(Cc3ccccc3)CC2)cc1` [CBK264095] the “% of control remaining” value was 111.8%.
In the case of `Cn1c(CN2CCCC2)nc2cc(NC(=O)c3cccc([N+](=O)[O-])c3)ccc21` [CBK268316], the “% of control remaining” value is reported as 113.317%.
In the case of `CS(=O)(=O)Nc1ccc(CNC(=O)C2(c3ccccc3)CCCC2)cc1` [CBK161525], the “% of control remaining” value is reported as 107.208%.
With `O=[N+]([O-])c1ccc(NCCNCCO)c(Cl)c1` [CBK261006] the “% of control remaining” value was 112.157%.
`O=C(C1CCCO1)N1C2CCC1CC(O)(c1ccco1)C2` (stereo not drawn) [CBK284035] was tested, and the “% of control remaining” value was 133.9%.
For `CCCC/C=C/c1cc(NCCc2ccccn2)n2nccc2n1` [CBK037155], the “% of control remaining” value was 104.079%.
With `CN1CCN(C(=O)c2ccc(Cl)c(S(=O)(=O)N3CCCCC3)c2)CC1` [CBK262228] the “% of control remaining” value was 93.0339%.
With `NS(=O)(=O)c1ccc(CCNC(=O)C2c3ccccc3Oc3ccccc32)cc1` [CBK264389] the “% of control remaining” value was 100%.
`COc1cc(OC)nc(C(NC(=O)C2CCN(Cc3cn(C)c4ccccc34)CC2)c2ccc(F)cc2)n1` (stereo not drawn) [CBK148185] was tested, and the “% of control remaining” value was 118.017%.
`O=C(Cn1c(-c2cccs2)n[nH]c1=S)N1CCC(c2nc3cc(Cl)ccc3o2)CC1` [CBK297765] was tested, and the “% of control remaining” value was 116.417%.

Source: article PMC12040169 (PLOS Biology, 2025)
